Source: publication PMC8501799, “Constitutive signal bias mediated by the human GHRHR splice variant 1” (Proceedings of the National Academy of Sciences of the …, 2021)
Substitutions are numbered along the chain they refer to. Results are given in words; binding and its absence hold for the method and conditions named. Binding seen in cells or lysates may run through a third protein. Some binding calls cover weakened binding; strength is not graded here. For some of these results: Where a sequence is shown, tags or fusion partners need not be part of it.

Assays:
Test in all cases: FRET or BRET; β-arrestin 1/2 recruitment assay in live HEK293T cells co-transfected with receptor-Rluc8 and β-arrestin 1/2-Venus (1:9 mass ratio); coelenterazine h; started with 250 μM GHRH; AUC of the BRET time course (535 nm/470 nm) normalised to WT GHRHR = 100%
[1] = biological target: T1, GHRHR F85A (human) (UniProt Q02643)
T1 sequence: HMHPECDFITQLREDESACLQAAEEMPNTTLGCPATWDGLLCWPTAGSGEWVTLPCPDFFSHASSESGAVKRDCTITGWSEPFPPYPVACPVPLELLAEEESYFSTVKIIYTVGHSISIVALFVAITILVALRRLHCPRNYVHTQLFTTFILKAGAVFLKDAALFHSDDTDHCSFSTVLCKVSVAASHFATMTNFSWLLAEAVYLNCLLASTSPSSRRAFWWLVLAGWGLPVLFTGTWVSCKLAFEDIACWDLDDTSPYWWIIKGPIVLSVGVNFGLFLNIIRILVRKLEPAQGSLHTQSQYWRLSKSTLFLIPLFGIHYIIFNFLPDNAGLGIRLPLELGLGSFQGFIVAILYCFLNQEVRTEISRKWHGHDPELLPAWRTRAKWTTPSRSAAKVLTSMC

[2] = biological target: T2, truncated GHRHR that lacks the first 89 residues (human) (UniProt Q02643)
T2 sequence: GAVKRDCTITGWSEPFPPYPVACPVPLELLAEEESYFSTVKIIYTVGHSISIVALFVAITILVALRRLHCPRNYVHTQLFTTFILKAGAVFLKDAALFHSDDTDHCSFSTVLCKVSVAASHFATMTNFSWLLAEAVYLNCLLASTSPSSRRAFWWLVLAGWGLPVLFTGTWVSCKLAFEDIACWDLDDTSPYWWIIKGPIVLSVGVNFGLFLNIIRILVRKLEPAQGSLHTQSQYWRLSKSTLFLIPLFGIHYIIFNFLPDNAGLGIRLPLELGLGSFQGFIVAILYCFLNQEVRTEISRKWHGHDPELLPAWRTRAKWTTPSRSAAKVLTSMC

[3] = biological target: T3, GHRHR L34A (human) (UniProt Q02643)
T3 sequence: T1 sequence with L12A, A63F

[4] = biological target: T4, HA-Flag-GHRHR-Rluc8 (human) (UniProt Q02643)
T4 sequence: T1 sequence with A63F

[5] = biological target: T5, GHRHR L62A (human) (UniProt Q02643)
T5 sequence: T1 sequence with L40A, A63F

[6] = biological target: T6, GHRHR with all four ECD residues L34, L62, F82 and F85 substituted with alanine (human) (UniProt Q02643)
T6 sequence: T1 sequence with L12A, L40A, F60A

[7] = biological target: T7, GHRHR F82A (human) (UniProt Q02643)
T7 sequence: T1 sequence with F60A, A63F

Measured: binding

β-arrestin 2-Venus (from UniProt P32121 1-409)
binds: all assays above
